Laboratory results taken from US12351819B2, “Method for removing undifferentiated pluripotent stem cells” (priority 2017, dated 2025).
Some results were stated once for a whole list of compounds, not compound by compound.

Legend:
Format in all cases: cell-based, human
Details in all cases: 2.5 μM, 24 hours
[1] = tested on: hESC-hepatocyte endoderm cells; experiment: LDH cytotoxicity assay in hESC-derived hepatocyte endoderm
Protocol: This protocol followed a method previously published in Nature Protocols^36. The hESCs were detached by 0.5 mM EDTA (Life Technologies, Camarillo, C, USA), seeded on VTN-N coated culture plates (Corning) and maintained for 48 hours in mTeSR 1 medium. Then, the medium was refreshed daily for all following steps. On days 1-2, the medium was replaced with fresh CDM-PVA (consisting of 0.5 g of PVA (Sigma) dissolved in 250 ml of IMDM/F-12, GlutaMAX (Invitrogen), 250 ml of IMDM (Invitrogen), 5 ml of chemically defined lipid concentrate (Invitrogen), 20 of thioglycerol 97% (Sigma), 350 of insulin (10 mg/ml; Roche), 250 of transferrin (30 mg/ml; Roche) plus Activin A (100 ng/ml; R&D), bFGF (80 ng/ml; R&D), BMP4 (10 ng/ml; R&D), and […] of LY-294002 (Promega). On day 3, the cells were differentiated in RPMI Medium supplemented with Activin A (100 ng/ml) and bFGF (80 ng/ml). On days 4-6, the cells were expanded in RPMI medium supplemented with Activin A (50 ng/ml). […] The cells were differentiated into the hepatocyte endoderm and analyzed following the drug treatments. The expression of alpha-fetoprotein (A0008, Dako, Santa Clara, CA, USA) was analyzed in the hepatocyte endoderm via immunofluorescence staining.

hBMMSCs = experiment: PI/Annexin V flow cytometry cell death assay, hBMMSCs
hESC-MSCs = experiment: PI/Annexin V flow cytometry cell death assay, hESC-MSCs

SMILES	cell death in hepatocyte endoderm cells (LDH release) [1]	cells alive (PI/Annexin V) in hBMMSCs (hBMMSCs)	cell death (PI/Annexin V) in hESC-MSCs (hESC-MSCs)
C[C@H]1O[C@@H](O[C@H]2[C@@H](O)C[C@H](O[C@H]3[C@@H](O)C[C@H](O[C@H]4CC[C@@]5(C)[C@H](CC[C@@H]6[C@@H]5C[C@@H](O)[C@]5(C)[C@@H](C7=CC(=O)OC7)CC[C@]65O)C4)O[C@@H]3C)O[C@@H]2C)C[C@H](O)[C@@H]1O [Digoxin, digoxin]	less than 10%	more than 98%	less than 2%
CC(=O)O[C@H]1C[C@H](O[C@H]2[C@@H](O)C[C@H](O[C@H]3[C@@H](O)C[C@H](O[C@H]4CC[C@@]5(C)[C@H](CC[C@@H]6[C@@H]5C[C@@H](O)[C@]5(C)[C@@H](C7=CC(=O)OC7)CC[C@]65O)C4)O[C@@H]3C)O[C@@H]2C)O[C@H](C)[C@H]1O[C@@H]1O[C@H](CO)[C@@H](O)[C@H](O)[C@H]1O [Lanatoside C, lanatoside C]	less than 10%	more than 98%	less than 2%
